Source: the supplement of paper PMC8256030
“And” between values parts separate entries of the source, which are not always exact repeats. Equal entries are not always repeated. Some of the results follow. Repeats in this data set agree poorly, so a single value says little.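 HEK293T cells were given each compound shortly before transfection with a reporter in which red mCherry is followed by the SARS-CoV-2 frameshift element and then GFP in the −1 frame, so GFP appears only after frameshifting.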

Assays:
[1] = system: SARS-CoV-2 -1 PRF reporter mCherry-FSE-GFP(-1); assay: mCherry (red) intensity as percent of control; higher = higher upstream reporter expression; conditions: 10 µM; 24 h; HEK293T
[2] = system: SARS-CoV-2 -1 PRF reporter mCherry-FSE-GFP(-1); assay: percent effect, decrease of GFP/mCherry ratio (-1 PRF reporter) relative to controls; higher = stronger frameshift inhibition; conditions: 10 µM; 24 h; HEK293T

| SMILES | mCherry [1] | percent effect [2] |
| --- | --- | --- |
| CC(C[N+](C)(C)C)OC(N)=O (stereo not drawn) [Carbamyl-beta-methylcholine] | 85.9% | 1.22% |
| O=C(CCCN1CCN2Cc3[nH]c4ccccc4c3CC2C1)c1ccc(F)cc1 (stereo not drawn) [biriperone] | 53.8% | 0.574% |
| N[C@@H](C(=O)N[C@@H]1C(=O)N2C(C(=O)O)=C(Cl)CS[C@H]12)c1ccccc1 | 95.2% | -5.34% |
| C[C@]12C[C@H](O)[C@H]3[C@@H](CCC4=CC(=O)CC[C@@]43C)[C@@H]1CC[C@@H]2C(=O)CO [Corticosterone] | 88.1% | -0.762% |
| CCN(CC)Cc1cc(Nc2ccnc3cc(Cl)ccc23)ccc1O [amodiaquine] | 145% | 0.977% |
| CC(O)C(N)C(=O)O (stereo not drawn) | 86.7% | -12.8% |
| Cc1ccc(S(=O)(=O)NC(=O)NN2CCCCCC2)cc1 [tolazamide] | 84% and 106% | 2.45% and -11.4% |
| Cn1cnc([N+](=O)[O-])c1Sc1ncnc2nc[nH]c12 | 98.3% | 0.291% |
| CC(=O)OCC1OC([S-])C(OC(C)=O)C(OC(C)=O)C1OC(C)=O.CC[PH+](CC)CC.[Au+] (stereo not drawn) [Auranofin] | 856% | -16.4% |
| CC(C)NCC(O)c1ccc(NS(C)(=O)=O)cc1 (stereo not drawn) | 108% | -0.612% |
| CN1C[C@@H]2C[C@H]1CN2c1cc2c(cc1F)c(=O)c(C(=O)O)cn2C1CC1 [danofloxacin] | 99.8% | -1.32% |
| CCCCCCCCCCCCCCCC(=O)OC[C@H](O)[C@H]1OC(=O)C(O)=C1O | 90.5% | -2.13% |
| CCCCCCCCCCCCCCC[C@H](O)[C@@H](N)CO [safingol] | 107% | -2.2% |
| CC[C@@H]1C(=O)OC[C@@H]1Cc1cncn1C | 118% | -5.24% |
| Cc1cc(NC(=O)/C(C#N)=C(\O)C2CC2)ccc1C(F)(F)F [laflunimus] | 71.9% | -1.84% |
| NC(=O)Cc1cccc(C(=O)c2ccccc2)c1N [nepafenac] | 101% | -2.73% |
| CC(O)CC(C)(C)O (stereo not drawn) | 91.6% | -7.31% |

Record cards, from the list above.
O=C(CCCN1CCN2Cc3[nH]c4ccccc4c3CC2C1)c1ccc(F)cc1 (stereo not drawn) [biriperone] as listed: mCherry [1]: 53.8%; percent effect [2]: 0.574%
CN1C[C@@H]2C[C@H]1CN2c1cc2c(cc1F)c(=O)c(C(=O)O)cn2C1CC1 [danofloxacin] as listed: mCherry [1]: 99.8%; percent effect [2]: -1.32%

(listing goes on)

| SMILES | mCherry [1] | percent effect [2] |
| --- | --- | --- |
| CN(C)CCC=C1c2ccccc2COc2ccccc21 | 109% | -3.99% |
| C/C=C/C1=C(C(=O)O)N2C(=O)[C@@H](NC(=O)[C@H](N)c3ccc(O)cc3)[C@H]2SC1 | 103% | -7.04% |
| CC(=O)NCC(=O)O [aceturate] | 95.8% | 0.812% |
| c1ccc(-c2cc(CCC3CCNCC3)c3ccccc3n2)cc1 [pipequaline] | 104% | -4.3% |
| C[C@@H]1NC(=O)[C@@H](N)CNC(=O)[C@H](C2CCNC(=N)N2)NC(=O)/C(=C/NC(N)=O)NC(=O)[C@H](CNC(=O)CC(N)CCCN)NC1=O.N=C1NCC[C@H]([C@@H]2NC(=O)/C(=C/NC(N)=O)NC(=O)[C@H](CNC(=O)C[C@@H](N)CCCN)NC(=O)[C@H](CO)NC(=O)[C@@H](N)CNC2=O)N1 [Capreomycin] | 45.3% | -3.72% |
| CNS(=O)(=O)CCc1ccc2[nH]cc(C3CCN(C)CC3)c2c1 [naratriptan] | 123% | -0.13% |
| COC(=O)[C@@H]1[C@H]2C[C@H]3c4[nH]c5ccccc5c4CCN3C[C@@H]2CC[C@@H]1O | 114% | 17.9% |
| CO/N=C(\C(=O)N[C@@H]1C(=O)N2C(C(=O)O)=C(COC(C)=O)CS[C@H]12)c1csc(N)n1 | 151% | 2.93% |
| O=C1OCCN1/N=C/c1ccc([N+](=O)[O-])o1 [furazolidone] | 94.7% | -4.96% |
| CN(C)CC/C=C1\c2ccccc2CSc2ccccc21 [dosulepin] | 87.9% | -0.386% |
| CONC(=O)Nc1ccc(-c2sc3c(c2CN(C)Cc2ccccc2)c(=O)n(-c2ccccc2)c(=O)n3Cc2c(F)cccc2F)cc1 [sufugolix] | 97.5% | -2.73% |
| N/N=c1/ccc(C(N)=O)n[nH]1 [hydracarbazine] | 111% | -19.3% |
| C[C@@H]1O[C@@H](OC[C@H]2O[C@@H](Oc3c(-c4ccc(OCCO)c(OCCO)c4)oc4cc(OCCO)cc(O)c4c3=O)[C@H](O)[C@@H](O)[C@@H]2O)[C@H](O)[C@H](O)[C@H]1O [troxerutin] | 102% | -1.45% |
| CCCCNC(=O)NS(=O)(=O)c1ccc(C)cc1 [Tolbutamide] | 92% | -1.69% |
| CC(C)(C)NCC(O)c1cc(Br)no1 (stereo not drawn) [broxaterol] | 104% | -0.205% |
| CC(=O)Oc1cc2c(s1)CCN(C(C(=O)C1CC1)c1ccccc1F)C2 (stereo not drawn) | 119% | -2.5% |
| CCN(CC)CC(=O)Nc1c(C)cccc1C [lidocaine] | 111% | -6.97% |
